{
  "sequences": {"note": "Sequences of proteins named here, by UniProt entry; tags and fusion partners are left off.", "UniProt Q8JPY0": "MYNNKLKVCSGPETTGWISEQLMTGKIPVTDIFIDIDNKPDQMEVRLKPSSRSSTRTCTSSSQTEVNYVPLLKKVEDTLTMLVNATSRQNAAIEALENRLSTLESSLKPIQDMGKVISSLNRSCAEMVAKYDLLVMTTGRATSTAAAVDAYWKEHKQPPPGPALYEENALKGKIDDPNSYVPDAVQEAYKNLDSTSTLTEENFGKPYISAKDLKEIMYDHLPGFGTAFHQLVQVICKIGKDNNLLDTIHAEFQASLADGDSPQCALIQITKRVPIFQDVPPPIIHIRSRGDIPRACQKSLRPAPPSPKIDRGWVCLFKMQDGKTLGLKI", "UniProt Q05127": "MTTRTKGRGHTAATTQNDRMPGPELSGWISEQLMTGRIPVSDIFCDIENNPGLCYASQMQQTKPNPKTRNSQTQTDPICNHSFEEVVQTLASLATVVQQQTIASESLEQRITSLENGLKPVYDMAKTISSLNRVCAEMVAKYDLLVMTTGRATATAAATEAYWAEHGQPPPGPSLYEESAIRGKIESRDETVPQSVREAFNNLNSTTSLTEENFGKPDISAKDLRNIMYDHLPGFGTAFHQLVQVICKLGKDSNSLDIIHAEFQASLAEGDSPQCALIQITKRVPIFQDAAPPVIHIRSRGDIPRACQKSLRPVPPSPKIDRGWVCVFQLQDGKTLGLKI", "UniProt Q8JPY1": "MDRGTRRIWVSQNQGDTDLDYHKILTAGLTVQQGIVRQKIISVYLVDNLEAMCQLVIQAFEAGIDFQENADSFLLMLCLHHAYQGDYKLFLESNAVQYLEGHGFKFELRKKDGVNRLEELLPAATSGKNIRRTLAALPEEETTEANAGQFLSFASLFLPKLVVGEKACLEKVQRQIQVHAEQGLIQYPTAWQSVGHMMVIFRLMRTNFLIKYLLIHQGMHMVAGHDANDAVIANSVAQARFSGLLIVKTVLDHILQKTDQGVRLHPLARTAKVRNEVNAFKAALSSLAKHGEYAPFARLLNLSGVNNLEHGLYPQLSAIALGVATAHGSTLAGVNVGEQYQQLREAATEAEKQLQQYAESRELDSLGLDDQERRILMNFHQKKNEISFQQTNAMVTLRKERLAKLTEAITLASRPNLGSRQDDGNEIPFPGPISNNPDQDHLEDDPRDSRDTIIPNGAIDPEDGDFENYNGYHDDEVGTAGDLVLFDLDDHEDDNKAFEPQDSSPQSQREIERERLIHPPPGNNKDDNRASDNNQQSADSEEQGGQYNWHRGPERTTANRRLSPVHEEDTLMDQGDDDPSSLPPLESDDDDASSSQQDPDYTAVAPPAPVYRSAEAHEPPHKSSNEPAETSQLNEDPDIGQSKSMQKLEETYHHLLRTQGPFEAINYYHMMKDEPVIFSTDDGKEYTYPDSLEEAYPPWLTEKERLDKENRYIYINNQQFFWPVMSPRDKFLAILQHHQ"},
  "source": "paper PMC5645129",
  "key": {"[1]": {"target": "VP35 of Reston virus (RESTV), isolate Pennsylvania (Reston virus (RESTV), isolate Pennsylvania (species Reston ebolavirus)) (UniProt Q8JPY0)", "assay": "co-IP"}, "[2]": {"target": "VP35 of Ebola virus (EBOV), isolate Mayinga (Ebola virus (EBOV), isolate Mayinga (species Zaire ebolavirus)) (UniProt Q05127)", "assay": "co-IP"}},
  "note": "These are yes or no findings as the source states them, for the method shown. In cells and extracts the contact can be indirect. Some binding calls cover weakened binding; strength is not graded here.",
  "data": [
    {"substance": "nucleoprotein (NP) of Reston virus (RESTV), isolate Pennsylvania (from UniProt Q8JPY1 1-739)", "values": [
      {"measurement": "binding", "setting": "[1]", "result": "binds"}
    ]},
    {"substance": "VP35 of Ebola virus (EBOV), isolate Mayinga (from UniProt Q05127 1-340)", "values": [
      {"measurement": "binding", "setting": "[2]", "result": "binds"}
    ]},
    {"substance": "VP35 of Reston virus (RESTV), isolate Pennsylvania (from UniProt Q8JPY0 1-329)", "values": [
      {"measurement": "binding", "setting": "[1]", "result": "binds"}
    ]}
  ]
}
